Measurements as given in patent US20250051437A1.
Results are given in words; binding and its absence hold for the method and conditions named. Some results given as binding are weak or reduced against the parent protein; the word gives no strength.

Protein sequences, listed by entry. Tags and fused reporters are not part of them. Lines headed by an entry give the natural chain unless they say otherwise; changes in a name come on top.
UniProt Q12864: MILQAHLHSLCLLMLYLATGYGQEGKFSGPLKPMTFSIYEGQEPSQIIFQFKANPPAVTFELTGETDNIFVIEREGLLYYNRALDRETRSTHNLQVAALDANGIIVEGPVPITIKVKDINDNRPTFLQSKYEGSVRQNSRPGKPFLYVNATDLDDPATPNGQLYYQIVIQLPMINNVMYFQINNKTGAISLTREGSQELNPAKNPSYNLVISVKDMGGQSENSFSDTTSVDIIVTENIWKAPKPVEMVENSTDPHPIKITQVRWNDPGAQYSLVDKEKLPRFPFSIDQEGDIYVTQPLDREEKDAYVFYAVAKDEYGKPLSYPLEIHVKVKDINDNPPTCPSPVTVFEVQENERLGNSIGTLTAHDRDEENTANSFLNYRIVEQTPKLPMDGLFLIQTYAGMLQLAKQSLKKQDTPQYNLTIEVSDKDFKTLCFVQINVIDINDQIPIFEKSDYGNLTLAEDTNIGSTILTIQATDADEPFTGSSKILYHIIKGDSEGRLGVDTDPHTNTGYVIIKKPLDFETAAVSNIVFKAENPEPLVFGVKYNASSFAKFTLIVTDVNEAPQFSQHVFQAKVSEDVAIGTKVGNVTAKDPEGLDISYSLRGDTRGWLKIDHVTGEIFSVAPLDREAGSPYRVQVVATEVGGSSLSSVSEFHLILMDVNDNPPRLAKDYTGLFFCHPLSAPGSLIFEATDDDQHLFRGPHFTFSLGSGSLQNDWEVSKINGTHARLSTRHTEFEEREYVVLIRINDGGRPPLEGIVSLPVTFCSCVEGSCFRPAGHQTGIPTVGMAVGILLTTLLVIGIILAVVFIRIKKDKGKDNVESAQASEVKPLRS

Legend:
[1] = target: human cadherin-17 (CDH17), endogenously expressed on human cancer cell lines (LS513, SNU-C1, PaTu8988s, HPAF-II) (human) (UniProt Q12864); assay: indirect flow cytometry (iQue), anti-His secondary antibody
[2] = target: human cadherin-17 (CDH17), endogenously expressed on human cancer cell lines (LS513, SNU-C1, PaTu8988s, HPAF-II) (human) (UniProt Q12864); assay: indirect flow cytometry (iQue) on LS513 cells (CDH17+), anti-His secondary antibody

binding [1]: binds | binding [2]: binds
B1: 07-0653-h43scFv anti-CDH17 scFv (scFv)
scFv: DIQLTQSPSSLSASVGDRVTITCRATSSLSYIHWYQQKPGKAPKPLIYEISKLASGVPSRFSGSGSGTDYTLTISSLQPEDFATYYCQQWNYPFTFGQGTKLEIKGGGGSGGGGSGGGGSQVQLVQSGAEVKKPGASVKVSCKASGYTFTDYYMNWVRQAPGQGLEWMGVIYPYSGGIGYAQKFQGRVTMTVDKSTSTAYMELSSLRSEDTAVYYCARGRGDYFGLFDFWGQGTTVTVSSHHHHHH
